# Experimental data reported in patent US20040101834A1, “Method of and kit for assessing responsiveness of cancer patients to antifolate chemotherapy” (priority 2001, published 2004).
# Some entries share one result that the patent states for a list of compounds.
# Test system: GW70 cells (GW1843U89-resistant CEM subline)
# Experiment: Antifolate growth inhibition, 72 h drug exposure
# Type: cell-based, human
# Conditions: GW70 vs parental CEM cells
smiles,measurement,value
C#CCN(Cc1cc2c(=O)[nH]c(C)nc2cc1C)c1ccc(C(=O)N[C@@H](CCc2nnn[nH]2)C(=O)O)c(F)c1 [ZD9331],fold resistance / cross-resistance,15-147 fold
